No constants are given. Whether binding was seen depends on the method and setting. In cells and extracts the contact can be indirect. Some binding calls cover weakened binding; strength is not graded here.
Molecular target: androgen receptor (AR) with Flag tag (UniProt P10275)
Assay: co-IP

Chains of the proteins cited; added tags and fusions are not shown.
UniProt P10275: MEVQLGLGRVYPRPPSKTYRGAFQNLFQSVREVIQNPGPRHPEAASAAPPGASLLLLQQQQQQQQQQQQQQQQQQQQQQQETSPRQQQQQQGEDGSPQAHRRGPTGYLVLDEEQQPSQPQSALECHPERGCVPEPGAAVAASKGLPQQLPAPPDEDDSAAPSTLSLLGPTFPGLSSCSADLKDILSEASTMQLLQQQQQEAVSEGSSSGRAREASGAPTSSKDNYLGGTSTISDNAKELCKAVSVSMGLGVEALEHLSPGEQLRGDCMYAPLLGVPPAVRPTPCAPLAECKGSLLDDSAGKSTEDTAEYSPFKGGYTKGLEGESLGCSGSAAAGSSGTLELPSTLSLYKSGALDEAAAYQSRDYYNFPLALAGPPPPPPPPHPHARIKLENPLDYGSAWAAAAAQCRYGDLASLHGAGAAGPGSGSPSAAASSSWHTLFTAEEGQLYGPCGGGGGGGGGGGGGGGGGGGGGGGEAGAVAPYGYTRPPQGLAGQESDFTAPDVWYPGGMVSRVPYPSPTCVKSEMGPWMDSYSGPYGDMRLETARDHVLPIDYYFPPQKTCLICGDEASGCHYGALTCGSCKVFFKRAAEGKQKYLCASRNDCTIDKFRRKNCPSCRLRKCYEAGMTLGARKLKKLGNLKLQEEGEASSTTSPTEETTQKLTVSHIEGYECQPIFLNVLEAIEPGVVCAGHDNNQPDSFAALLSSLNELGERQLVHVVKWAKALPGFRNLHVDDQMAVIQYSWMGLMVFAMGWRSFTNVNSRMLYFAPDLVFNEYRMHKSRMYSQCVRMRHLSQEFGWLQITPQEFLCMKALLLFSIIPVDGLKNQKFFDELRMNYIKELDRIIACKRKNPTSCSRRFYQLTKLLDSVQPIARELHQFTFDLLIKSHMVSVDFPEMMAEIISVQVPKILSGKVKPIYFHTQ
UniProt Q8NF99: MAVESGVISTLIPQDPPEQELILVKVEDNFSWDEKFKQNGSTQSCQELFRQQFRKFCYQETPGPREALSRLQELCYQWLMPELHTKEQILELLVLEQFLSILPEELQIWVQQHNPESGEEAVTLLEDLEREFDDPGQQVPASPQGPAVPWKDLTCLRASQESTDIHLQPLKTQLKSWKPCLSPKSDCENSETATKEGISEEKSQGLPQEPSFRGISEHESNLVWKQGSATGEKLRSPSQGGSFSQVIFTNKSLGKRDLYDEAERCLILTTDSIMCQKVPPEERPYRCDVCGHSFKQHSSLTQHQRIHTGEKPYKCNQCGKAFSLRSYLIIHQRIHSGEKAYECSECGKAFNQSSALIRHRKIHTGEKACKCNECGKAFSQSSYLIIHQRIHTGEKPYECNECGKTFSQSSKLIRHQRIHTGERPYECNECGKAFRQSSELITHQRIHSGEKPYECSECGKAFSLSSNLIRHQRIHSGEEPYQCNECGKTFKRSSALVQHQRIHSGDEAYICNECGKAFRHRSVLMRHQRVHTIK

Substance: Zinc Finger Protein 397 (ZNF397), full length, with TY1 tag (from UniProt Q8NF99 1-534)
- binding: binds
